Data published in PubChem BioAssay (EPA / NIEHS).
“And” between values parts separate entries of the source, which are not always exact repeats. Identical values can stand only once. Inconclusive means that the source gave no clear call. Such entries were picked first, then a sample of the others. Potencies beside an inconclusive call are fits to weak or partial responses and may not hold up. The source made the active and inactive calls. Rule for the calls: active = hit-call score of the fitted dose curve at least 0.9, where 1 is the maximum; inconclusive = response in the unintended direction; inactive = score below 0.9.

The compounds below were run on organic anion transporter (SLCO1B1), SLCO1B1 (gene 10599) (assay: CLD_SLCO1B1_24hr: CellzDirect (CLD) Gene Expression Assay for organic anion transporter (SLCO1B1) at 24 hours (AID 2283690)).
Experimental: CLD_24hr is a cell-based, multiplexed-readout assay that uses hepatocyte, a human liver primary cell, with measurements taken at 24 hours after chemical dosing in a 96-well plate.CLD_SLCO1B1_24hr is one of 16 assay component(s) measured or calculated from the CLD_24hr assay. It is designed to make measurements of mRNA induction, a form of inducible reporter, as detected with chemiluminescence signals by Quantitative Nuclease Protection Assay (qNPA) technology.Data from the assay component CLD_SLCO1B1_24hr was analyzed at the endpoint, CLD_SLCO1B1_24hr, in the positive analysis fitting direction relative to DMSO as the negative control and baseline of activity. Using a type of inducible reporter, gain-of-signal activity can be used to understand changes in the reporter gene as they relate to the gene SLCO1B1. Furthermore, this assay endpoint can be referred to as a primary readout. To generalize the intended target to other relatable targets, this assay endpoint is annotated to the transporter intended target family, where subfamily is organic anion transporter.
Human hepatocyte cultures were treated daily for two consecutive days with fresh dosing solutions containing appropriate concentrations of the 320 ToxCast chemicals (chemical identities were blinded to CellzDirect and other ToxCast collaborators), vehicle control (0.2% DMSO), and positive control inducers as summarized in Table 1. Due to the large number of treatment groups and chemicals examined, the ToxCast chemicals were divided into two groups (spanning two independent cultures of hepatocytes from separate donor preparations (Hu778: ToxCast plates 1 and 2; Hu776: ToxCast plates 3 and 4). Each preparation of human hepatocyte cultures was treated with respective vehicle control, medium only control, set of six positive controls/reference chemicals for the five hepatic receptor pathways, and a subset of eight of the ToxCast chemicals (indoxacarb, pyrithiobac-sodium, norflurazon, cyhalofop-butyl, methomyl, thiram, acetochlor, and propiconazole). These replicate data, coupled with internal replicates designed within the blinded ToxCast chemical library, provided additional data to evaluate interindividual differences between hepatocyte preparations and their potential impact on chemical profiles.Cell morphology and integrity were evaluated using phase-contrast microscopy as an indicator of hepatocyte cell health (Tyson & Green, 1987). Cultures for each treatment group (i.e., media, vehicle [0.2% DMSO], positive control inducers [multiple concentrations], and the ToxCast chemicals [multiple concentrations]) were observed and cell morphology was assessed relative to vehicle control cultures at each harvest time point (0, 6, 24, or 48 h). […] Images were evaluated at the conclusion of the study to assess changes in cell integrity and account for the effects of chemical exposure on uncharacteristic changes in concentration-dependent gene expression profiles. The results from these determinations of apparent cytotoxicity were annotated (yes/no) alongside the corresponding qNPA data for reference.At the conclusion of each treatment period, hepatocyte cultures (96-well) were washed with 1 volume of HBSS, lysed by addition of 25 ul ArrayPlate lysis buffer (HTG, Tucson, AZ), and 70 ul/well of Denaturation Oil, denatured by incubation at 95C for 10 min, and frozen at approximately -70C until analysis by nuclease protection assay (qNPA) (Roberts et al., 2007). For qNPA analysis, cell lysates were thawed at 50C for approximately 30 min, qNPA probes were added, and samples were incubated at 95C for 10 min to begin the detection process by denaturing the target RNA, dissociating the duplexes and secondary structure hybridization. At the conclusion of the hybridization period, S1 nuclease reagent was added to each sample to digest all nonprotected nucleotides at 50C for 60-90 min. […]

| SMILES | AC50 | outcome |
| --- | --- | --- |
| CO/C=C(/C(=O)OC)c1ccccc1Oc1cc(Oc2ccccc2C#N)ncn1 | inconclusive: 37.6 µM | – |
| Nc1c(Cl)c(F)nc(OCC(=O)O)c1Cl | – | inactive |
| CC1(C)CCC(=Cc2ccc(Cl)cc2)C1(O)Cn1cncn1 (stereo not given) | inconclusive: 20 µM | – |
| CSc1nnc(C(C)(C)C)c(=O)n1N | inconclusive: 0.00115 µM | – |
| CCc1nn(C)c(C(=O)NCc2ccc(C(C)(C)C)cc2)c1Cl | – | inactive |
| O=C1c2ccccc2C(=O)N1SC(Cl)(Cl)Cl | – | inactive |
| Cc1cc(C2CC2)nc(Nc2ccccc2)n1 | inconclusive: 33.4 µM | – |
| CCNP(=S)(OC)O/C(C)=C/C(=O)OC(C)C (stereo not given) | inconclusive: 20 µM | – |
| O=C(Nc1ccccc1-c1ccc(Cl)cc1)c1cccnc1Cl | inconclusive: 3.72 µM | – |
| O=C(O)CCCOc1ccc(Cl)cc1Cl | inconclusive: 3.97 µM | – |
| COc1nn(CSP(=S)(OC)OC)c(=O)s1 | inconclusive: 20 µM | – |
| CC(C)(C)C(O)/C(=C\c1ccc(Cl)cc1Cl)n1cncn1 (stereo not given) | inconclusive: 20 µM | – |
| N#Cc1cc(Br)c(O)c(Br)c1 | – | inactive |
| CNC(=O)Oc1cccc2ccccc12 | inconclusive: 20 µM | – |
| CCc1cnc(C2=NC(C)(C(C)C)C(=O)N2)c(C(=O)O)c1 (stereo not given) | – | inactive |
| CCCN(CCC)c1c([N+](=O)[O-])cc(C(F)(F)F)cc1[N+](=O)[O-] | inconclusive: 36.2 µM | – |
| CCC(=NOC/C=C/Cl)C1=C(O)CC(C2CCOCC2)CC1=O (stereo not given) | inconclusive: 0.766 µM | – |
| CNC(=S)S | inconclusive: 3.97 µM | – |
| COc1ccc(-c2ccccc2)cc1NNC(=O)OC(C)C | inconclusive: 1.01 µM | – |
| CN(C)NC(=O)CCC(=O)O | – | inactive |

| SMILES | AC50 | outcome |
| --- | --- | --- |
| CC(Oc1ccc(Cl)cc1Cl)C(=O)O (stereo not given) | inconclusive: 20 µM | – |
| COP(=O)(OC)SCn1c(=O)oc2cc(Cl)cnc21 | inconclusive: 20 µM | – |
| COP(=S)(OC)Oc1nc(Cl)c(Cl)cc1Cl | inconclusive: 20 µM | – |
| COc1cnc(OC)n2nc(NS(=O)(=O)c3c(OCC(F)F)cccc3C(F)(F)F)nc12 | inconclusive: 0.466 µM | – |
| CC(C)Oc1cccc(NC(=O)c2ccccc2C(F)(F)F)c1 | – | inactive |
| Cn1c(-c2ccccc2)cc(-c2ccccc2)[n+]1C | inconclusive: 0.131 µM | – |
| COC(=O)C(C)Oc1ccc(Oc2ccc(Cl)cc2Cl)cc1 (stereo not given) | inconclusive: 0.328 µM | inactive |
| CS(=O)(=O)c1ccc(C(=O)C2C(=O)CCCC2=O)c([N+](=O)[O-])c1 | inconclusive: 0.00245 µM | – |
| COc1nc(C)nc(NC(=O)NS(=O)(=O)c2ccccc2Cl)n1 | inconclusive: 20 µM | – |
| COP(=O)(OC)OC(Br)C(Cl)(Cl)Br (stereo not given) | inconclusive: 0.00363 µM | – |
| COC(=O)NC(=S)Nc1ccccc1NC(=S)NC(=O)OC | inconclusive: 0.0633 µM | – |
| CCOc1nc(NC)nc(NC(=O)NS(=O)(=O)c2ccccc2C(=O)OC)n1 | inconclusive: 20 µM | – |
| CCN(CC)c1nc(C)cc(OP(=S)(OC)OC)n1 | inconclusive: 13.7 µM | – |
| CON(C)C(=O)Nc1ccc(Cl)c(Cl)c1 | inconclusive: 10.1 µM | – |
| CCC(CC)Nc1c([N+](=O)[O-])cc(C)c(C)c1[N+](=O)[O-] | inconclusive: 2.8 µM | – |
| Cc1[nH]c(=O)n(C(C)(C)C)c(=O)c1Cl | inconclusive: 20 µM | – |
| CCC(C)(NC(=O)c1cc(Cl)c(C)c(Cl)c1)C(=O)CCl (stereo not given) | inconclusive: 20 µM | – |
| CCCCNC(=O)OCC#CI | inconclusive: 3.97 µM and inconclusive: 1.9 µM | – |
| CCCCC(O)(Cn1cncn1)c1ccc(Cl)cc1Cl (stereo not given) | inconclusive: 20 µM | – |
